Data as given in PubChem BioAssay AID1159579 (Peter MacCallum Cancer Centre, 2015).
Shown is an unselected part of about 2,000 reagents. Of all reagents, 549 (27%) got an active call. 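Some migration ratios are negative; siRNAs with too few cells are inactive whatever their migration ratio.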 The numbers tell different reagents against one gene apart. Not stated in the record: the time to read-out.

Purpose: 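Find genes whose silencing alters migration of lymphatic endothelial cells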 (follow-up of hits)
Cell system: human dermal lymphatic endothelial cells
Reagent: single siRNA against human genes, 25 nM
Measurement: 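High content images of wound closure area and cell nuclei counts, each the average of two wells, expressed against mock transfection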
Scale: migration relative to mock: higher = more migration into the scratch; mean nuclei count: higher = more cells remaining
Hit rule: 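a ratio of at most 0.6 or at least 1.3 marks altered migration and an active call; a mean nuclei count under 3300 forces an inactive call regardless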
Calls: active = migration changed (impaired or accelerated); inactive = no migration change, or too few cells

no.	gene symbol	reagent	migration relative to mock	migration and cell number class	mean nuclei count	outcome
1	ERP29	1	0.92	no change in migration or cell number	6736	inactive
2	ERP29	2	0.79	no change in migration or cell number	5878	inactive
3	ERP29	3	0.88	no change in migration or cell number	5574	inactive
4	ERP29	4	0.7	no change in migration or cell number	5786	inactive
5	COL2A1	1	0.99	no change in migration or cell number	5226	inactive
6	COL2A1	2	0.57	migration reduced	4821	active
7	COL2A1	3	0.88	no change in migration or cell number	4936	inactive
8	COL2A1	4	0.76	no change in migration or cell number	5513	inactive
9	KDR	1	-0.34	migration reduced	4242	active
10	KDR	2	0.68	no change in migration or cell number	6043	inactive
11	KDR	3	0.94	no change in migration or cell number	6139	inactive
12	KDR	4	0.68	no change in migration or cell number	4870	inactive
13	ETNK2	1	0.41	migration reduced	6680	active
14	ETNK2	2	0.48	migration reduced	4099	active
15	ETNK2	3	0.82	no change in migration or cell number	5941	inactive
16	ETNK2	4	0.59	migration reduced	5778	active
17	ABR	1	0.7	no change in migration or cell number	5907	inactive
18	ABR	2	0.9	no change in migration or cell number	5062	inactive
19	ABR	3	1.13	no change in migration or cell number	5614	inactive
20	ABR	4	0.7	no change in migration or cell number	5434	inactive
21	ADNP	1	1.06	no change in migration or cell number	6132	inactive
22	ADNP	2	1.04	no change in migration or cell number	6288	inactive
23	ADNP	3	0.78	no change in migration or cell number	5555	inactive
24	ADNP	4	1.03	no change in migration or cell number	5423	inactive
25	FTMT	1	0.87	no change in migration or cell number	4876	inactive
26	FTMT	2	1.15	no change in migration or cell number	5440	inactive
27	FTMT	3	0.92	no change in migration or cell number	6364	inactive
28	FTMT	4	1.04	no change in migration or cell number	5466	inactive

Reprinted from the listing (2 entries):
no.	gene symbol	reagent	migration relative to mock	migration and cell number class	mean nuclei count	outcome
11	KDR	3	0.94	no change in migration or cell number	6139	inactive
12	KDR	4	0.68	no change in migration or cell number	4870	inactive
